According to patent publication US20220143023A1, “COMPOUNDS WITH ANTI-TUMOR ACTIVITY AGAINST CANCER CELLS BEARING EGFR OR HER2 EXON 20 INSERTIONS” (Board of Regents, The University of Texas System, priority 2019, published 2022):
For at least one compound, name, drawing or mass did not settle the structure. Some results were stated once for a whole list of compounds, not compound by compound.

Assays:
[1] = tested on: lung cancer patients harboring HER2 exon 20 insertion mutations; settings: cited from earlier work
[2] = tested on: patients with HER2 mutant tumors; settings: many studies, Kosaka et al., 2017; cited from earlier work
[3] = tested on: Ba/F3 cells expressing HER2 exon 19, 20 and 21 mutations; assay: Ba/F3 HER2 mutant panel drug screen (Cell Titer Glo); assay type: cell-based; settings: 72 hours
[4] = tested on: EGFR H773insNPH PDX; settings: Yang et al., 2016; cited from earlier work

| SMILES | OR rates [2] | further results |
| --- | --- | --- |
| CN(C)C/C=C/C(=O)Nc1cc2c(Nc3ccc(F)c(Cl)c3)ncnc2cc1O[C@H]1CCOC1 [Afatinib] | below 40% | response rate [1]: 18.2%-18.8% |
| COc1cc2ncnc(Nc3ccc(F)c(Cl)c3)c2cc1NC(=O)/C=C/CN1CCCCC1 [Dacomitinib] | below 40% |  |
| C=CC(=O)N1CCC[C@@H](n2nc(-c3ccc(Oc4ccccc4)cc3)c3c(N)ncnc32)C1 [Ibrutinib] |  | activity against cells expressing HER2 D769 variants [3]: did demonstrate activity; inhibition of cell viability in cells expressing HER2 exon 20 mutations [3]: not effective |
| CS(=O)(=O)CCNCc1ccc(-c2ccc3ncnc(Nc4ccc(OCc5cccc(F)c5)c(Cl)c4)c3c2)o1 [Lapatinib] | below 40% |  |
| CCOc1cc2ncc(C#N)c(Nc3ccc(OCc4ccccn4)c(Cl)c3)c2cc1NC(=O)/C=C/CN(C)C [Neratinib] | below 40% |  |
| C=CC(=O)Nc1cccc(Nc2nc(Nc3ccc(N4CCN(C(C)=O)CC4)cc3OC)ncc2C(F)(F)F)c1 [Rociletinib] |  | activity in EGFR H773insNPH PDX model [4]: minimal activity |
